A short description of this test: qHTS Assay to Find Inhibitors of Chronic Active B-Cell Receptor Signaling. The following applies: ABC-DLBCL IkBa-CBG/CBR reporter, luminescence ratio (green luciferase fused to IkBa over red control in TMD8 lymphoma cells), 4 h. Put shortly: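 Cell line TMD8 (human ABC DLBCL), stably expressing tet-inducible CBG68-IkBa fusion and CBR; IMDM/0.5% FBS; cpd up to 46 uM; dox induction, 4 h, 37C/5% CO2; dual luminescence; green/red ratio; MG132 control.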

Where [1] appears, read: measured here: CBR red luminescence, cell number.
Setting [2] is: measured here: IkBa-CBG green luminescence.

This is an account of results in PubChem BioAssay AID493014 (National Center for Advancing Translational Sciences (NCATS), 2011).

The list shows a part of the results. The main result of the screen is listed elsewhere. These columns were measured beside it and carry no call. The list favours compounds with an active or inconclusive main result. The note in brackets gives the kind of curve behind each potency; many fits are weak.

With `COc1ccc2[nH]cc(C(=O)CN3CCCC(C)(C)C3)c2c1`, the AC50 under setting [1] was 8.91 µM [falling, single point].

For `Cc1ccc(Cn2c(CN(C)Cc3ccccc3)nc3c2c(=O)n(C)c(=O)n3C)cc1`, under setting [1], the AC50 was 8.2 µM [falling, single point].

For `c1ccc(Cc2cc(-c3ccccc3)on2)cc1`, the AC50 under setting [1] is 1.84 µM [rising, full curve, poor fit].

As for `O=C(COc1ccc([N+](=O)[O-])cc1)Nc1cc(C(=O)O)cc(C(=O)O)c1`, under setting [1], the AC50 was 11.2 µM [falling, partial curve, poor fit].

Turning to `Cc1nn(Cc2c(F)c(F)c(F)c(F)c2F)c(C)c1NC(=O)c1ccc(COc2cc(Cl)ccc2Cl)cc1`, the AC50 under setting [1] is 3.98 µM [rising, full curve, poor fit].

Turning to `O=C(NCCC1CCCCN1S(=O)(=O)c1ccc(F)cc1)C(=O)Nc1ccccc1` (stereo not given), the AC50 under setting [1] is 1.64 µM [falling, full curve, poor fit].

In the case of `Cc1cc(C)c2c(n1)sc1c(=O)n(CC(=O)c3ccccc3)cnc12`, the concentration at half-maximal activity (AC50) under setting [1] is 25.1 µM [rising, single point].

As to `O=C(Nc1nc2ccc(Cl)cc2s1)C1CCCO1` (stereo not given), under setting [1], the AC50 is 11.6 µM [falling, partial curve].

`CN1CCN(/N=C/c2ccc(OCc3ccccc3)cc2)CC1`: the AC50 under setting [1] is 14.1 µM [rising, single point].

With `C#CCn1c(=NC(=O)CSC(C)=O)sc2cc(F)ccc21`, the AC50 reads like this: under setting [1], 5.62 µM [rising, full curve, poor fit]; under setting [2], 7.08 µM [falling, partial curve, poor fit].

Consider `COc1ccccc1NC(=O)C1(C)Cc2ccccc2C(=O)O1` (stereo not given), for which the AC50 under setting [1] was 29.1 µM [falling, single point].

In the case of `CC1CN(C(=O)Nc2ccc3snnc3c2)c2ccccc21` (stereo not given), the AC50 under setting [1] is 1.84 µM [rising, partial curve, poor fit].

As to `CC(=O)O/N=C(/c1nonc1N)N1CCN(c2ccc([N+](=O)[O-])cc2Cl)CC1`, under setting [1], the AC50 was 20.6 µM [rising, partial curve, poor fit].

`COc1cc2nc(NC(=O)c3ccc(S(=O)(=O)N4CCCC4)cc3)sc2cc1OC`: the AC50 under setting [1] was 7.94 µM [rising, partial curve, poor fit].

For the compound `O=C(COCc1cc(-c2ccc3c(c2)OCO3)on1)N1CCN(c2cccc(C(F)(F)F)c2)CC1`, the AC50 under setting [1] was 17.8 µM [falling, single point].

Take `CC(C)NC(=O)CSc1nnc(COc2ccccc2Cl)o1`: the AC50 under setting [1] is 0.00651 µM [rising, full curve, poor fit].

Regarding `CC(OC(=O)c1cccc(-n2cnnn2)c1)C(=O)c1ccccc1` (stereo not given), the AC50 under setting [1] is 13 µM [rising, partial curve].

For the compound `C/C(=N\NC(=O)c1ccoc1C)c1ccccc1O`, the AC50 under setting [1] was 22.4 µM [falling, single point].

In the case of `Cc1ccc(C)n1-c1ccccc1N`, the AC50 under setting [1] was 18.4 µM [falling, partial curve, poor fit].

For the compound `CC(C)N1CCC(N2CCN(Cc3ccc(Oc4ncccn4)cc3)CC2CCO)CC1` (stereo not given), the AC50 under setting [1] was 35.5 µM [rising, single point].

On to `O=C(Nc1ccc2c(c1)OCO2)c1cnc(Cl)c(Cl)c1`, for which the AC50 reads like this: under setting [1], 7.31 µM [falling, partial curve]; under setting [2], 5.8 µM [rising, partial curve, poor fit].

`Cc1cc(C(=O)NN=C2CCCCCC2)c(C)o1`: under setting [1], the AC50 is 7.94 µM [falling, partial curve].

Regarding `COCC1CCCN(C(=O)c2ccc3oc(C(C)C)nc3c2)C1` (stereo not given), the AC50 under setting [1] was 25.1 µM [falling, single point].

In the case of `O=C(N/N=C/c1ccc([N+](=O)[O-])cc1)c1c[nH]c2ccccc12`, the AC50 under setting [1] is 22.4 µM [falling, partial curve, poor fit].

In the case of `CCC(C)c1ccc(NC(=O)CSc2nncn2N)cc1` (stereo not given), the AC50 under setting [1] was 6.51 µM [rising, single point].

On to `Cc1nc2cc(NC(=O)c3ccc(Cl)cc3)ccc2n1C`, for which the AC50 under setting [1] is 7.94 µM [falling, partial curve].

For `COc1ccccc1CN(C(=O)Cc1cccs1)C(C(=O)NC1CCCC1)c1ccncc1` (stereo not given), under setting [1], the AC50 was 15.8 µM [falling, single point].

For the compound `COC(=O)c1ccc(CSc2nc3sc(C)c(C)c3c(=O)[nH]2)cc1`, the AC50 under setting [1] was 3.16 µM [falling, partial curve, poor fit].

As for `CCCCCCCn1c(=N)n(CC(=O)c2ccco2)c2ccccc21`, the AC50 under setting [1] is 0.731 µM [falling, full curve, poor fit].

In the case of `CC(C)(C)OC(=O)C[C@H]1C/C=C\C[C@H](CC(=O)N[C@H](CO)Cc2ccccc2)C(=O)N[C@H](C(C)(C)C)COC1=O`, the AC50 under setting [1] was 13 µM [rising, partial curve, poor fit].

Consider `COC(CNC(=O)c1ccc(CS(=O)(=O)c2ccccc2)o1)OC`, for which the AC50 under setting [1] was 0.631 µM [rising, partial curve, poor fit].

Consider `Cc1ccc(N2C(=O)CC(Sc3ncn[nH]3)C2=O)cc1C` (stereo not given), for which, under setting [1], the AC50 is 0.316 µM [falling, full curve, poor fit].

For `Cc1ccc2cc(CN(CC3CCCO3)C(=O)c3cccs3)c(=O)[nH]c2c1` (stereo not given), the AC50 under setting [1] was 11.2 µM [rising, partial curve, poor fit].

As to `COc1cc(/C=N/Nc2ccc(Cl)c(C(=O)O)c2)ccc1OCC(=O)N1C(C)CCCC1C` (stereo not given), the AC50 under setting [1] is 11.2 µM [falling, single point].

For `CCOc1ccc(C(C)=O)cc1COC(=O)CNC(=O)c1cccs1`, under setting [1], the AC50 is 18.4 µM [rising, single point].

`COC(=O)/C(=C\Nc1ccc(Oc2ccc(F)cc2F)nc1)NC(=O)c1ccccc1`: the AC50 under setting [1] is 35.5 µM [rising, single point].

As for `C#Cc1ccc([C@H]2C=C(C(=O)N3CCN(Cc4ccc5c(c4)OCO5)CC3)O[C@@H](OCC)[C@@H]2CCCO)cc1`, the AC50 under setting [1] was 35.5 µM [falling, single point].

Take `CC(=O)Nc1ccc(CN2CCCCCCC2)cc1`: the AC50 under setting [1] is 5.62 µM [falling, single point].

As to `COc1cc([N+](=O)[O-])ccc1NC(=S)NNC(=O)c1ccc2c(c1)OCO2`, the AC50 under setting [1] was 12.6 µM [falling, single point].

Take `Cc1ccc(S(=O)(=O)Oc2ccc(C(c3c(C)[nH][nH]c3=O)c3c(C)[nH][nH]c3=O)cc2)cc1`: the AC50 under setting [1] is 32.6 µM [falling, single point].

As for `O=C(C1CCCN(S(=O)(=O)c2cccs2)C1)N1CCN(C2CCCCC2)CC1` (stereo not given), the AC50 under setting [1] was 2.06 µM [rising, single point].

Turning to `Cn1c(=O)c2c(nc(NC(Cc3ccccc3)C(=O)O)n2Cc2ccccc2)n(C)c1=O` (stereo not given), under setting [1], the AC50 was 7.08 µM [falling, partial curve].

Consider `C=CCSc1nnc2c(n1)OC=Nc1ccccc1-2`, for which the AC50 under setting [1] was 18.4 µM [falling, single point].

With `CCCCN(C)C(=O)c1nc2ccccn2c1CNC1CCC1`, the AC50 under setting [1] is 14.1 µM [rising, partial curve, poor fit].

For the compound `CCN(CC)S(=O)(=O)c1cccc(C(=O)Nc2ccccc2C(=O)N2CCOCC2)c1`, the AC50 under setting [1] is 13 µM [rising, partial curve, poor fit].

Regarding `O=C(N/N=C\c1c(O)ccc2ccccc12)c1ccc(O)cc1`, the AC50 under setting [1] is 11.2 µM [falling, partial curve].

For `Cc1cc(C)c(NC(=O)CNC(=O)c2ccc3ncsc3c2)c(C)c1`, the concentration at half-maximal activity (AC50) under setting [1] is 5.8 µM [falling, partial curve].

For `C#CCCOC(=O)Nc1ccccc1`, the concentration at half-maximal activity (AC50) under setting [1] was 3.16 µM [rising, single point].

For `Cc1ccc(NC(=S)N2CCN(C)CC2)c(C)c1`, the AC50 under setting [1] was 14.6 µM [rising, partial curve, poor fit].

Consider `c1ccc(SCCN2CCN(c3ccccc3)CC2)cc1`, for which the AC50 under setting [1] was 1.58 µM [rising, full curve, poor fit].

Take `CCCCC1C2C(=O)N(c3ccc(C)cc3)C(=O)C2ON1c1ccccc1` (stereo not given): under setting [1], the AC50 is 10 µM [falling, partial curve, poor fit].

As to `COc1ccc(Br)cc1CNC(=O)Cc1c(C(=O)O)[nH]c2ccc(Cl)cc12`, under setting [1], the AC50 is 17.8 µM [falling, partial curve, poor fit].

As to `COc1ccc(NC(=S)NCC2CCCO2)c(OC)c1` (stereo not given), the AC50 under setting [1] was 25.9 µM [rising, single point].

On to `COc1cccc(NC(=O)COc2ccc(C)cc2)c1`, for which the AC50 under setting [1] was 23.1 µM [falling, single point].

`C/C=C(\C)CN1CCN(c2cc(C)ccc2C)CC1`: under setting [1], the AC50 is 35.5 µM [rising, single point].

Consider `CCc1ccc(C(=O)COC(=O)c2cccnc2Cl)cc1`, for which the AC50 under setting [1] is 35.5 µM [rising, single point].

For `Cc1cc(NC(=O)C(=O)c2cn(C)c3ccccc23)no1`, under setting [1], the AC50 was 0.631 µM [falling, full curve].

In the case of `COc1ccc(NC(=S)Nc2cccc(Cl)c2)cc1OC`, the AC50 under setting [1] is 5.01 µM [rising, partial curve, poor fit].

Turning to `Cc1[nH]c2ccccc2c1CN1CCC(CO)(Cc2ccccc2)CC1`, the AC50 under setting [1] is 28.2 µM [falling, single point].

As for `COc1ccc(CCNC(=O)CS(=O)(=O)Cc2nc(-c3ccccc3Cl)oc2C)cc1OC`, the AC50 under setting [1] is 0.794 µM [rising, full curve, poor fit].

Take `COc1ccc(C2/C(=C(/O)c3ccccc3)C(=O)C(=O)N2CC(C)O)c(OC)c1` (stereo not given): under setting [1], the concentration at half-maximal activity (AC50) is 17.8 µM [rising, single point].

For the compound `COc1ccc(N(CC(=O)N/N=C(\C)c2ccc(OC)c(OC)c2)S(=O)(=O)c2ccccc2)cc1`, the AC50 under setting [1] is 28.2 µM [rising, partial curve, poor fit].

Take `COC(=O)c1cn(-c2ccccc2)c(C)c1C(=O)OC`: the AC50 under setting [1] is 9.2 µM [rising, partial curve, poor fit].
